Values from PubChem BioAssay AID1259405 (NCATS, 2018).
The whole screen tested about 50,000 reagents; this is a random part of them. About 4,000 of all reagents (8%) count as active. 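Mouse siRNA library applied to hamster cells; one well for each siRNA.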 Unmarked entries are inactive. Reagents against one gene are numbered here.

Assay: 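Mouse-designed siRNAs used to find CHO productivity engineering targets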 (primary screen)
Cells: Chinese hamster CHO-K1 ovary cells with stable secreted eGFP expression
Reagent: single siRNA against mouse genes, 0.8 pmol siRNA per well (2 µl of 400 nM stock)
Duration: 3 days
Measured: 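Percent of the per-plate non-targeting control median for intracellular GFP per well by laser scanning cytometry and for cell viability by ATP luminescence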
Scale: GFP, % of control: higher = more GFP per well, higher productivity; viability (ATP), % of control: higher = more viable cells (more ATP)
Rule for the call: 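Called active when intracellular GFP, relative to negative control, is at or above 120%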

Srpk1 | GFP, % of control = 64.7; viability (ATP), % of control = 80.1
Herc4 #1 | GFP, % of control = 55.5; viability (ATP), % of control = 89.2
Herc4 #2 | GFP, % of control = 88.3; viability (ATP), % of control = 95.2
Herc4 #3 | GFP, % of control = 31.2; viability (ATP), % of control = 41.5
Sspn #1 | GFP, % of control = 96.1; viability (ATP), % of control = 73.3
Sspn #2 | GFP, % of control = 88.8; viability (ATP), % of control = 105
Sspn #3 | GFP, % of control = 122 (active); viability (ATP), % of control = 77.7
Or8g23 #1 | GFP, % of control = 99.9; viability (ATP), % of control = 73.2
Or8g23 #2 | GFP, % of control = 39.4; viability (ATP), % of control = 51.1
Or8g23 #3 | GFP, % of control = 74.6; viability (ATP), % of control = 78
Cnnm4 #1 | GFP, % of control = 85.6; viability (ATP), % of control = 102
Cnnm4 #2 | GFP, % of control = 70.3; viability (ATP), % of control = 68
Cnnm4 #3 | GFP, % of control = 98.1; viability (ATP), % of control = 109
Or6z3 #1 | GFP, % of control = 67.6; viability (ATP), % of control = 60
Or6z3 #2 | GFP, % of control = 84.1; viability (ATP), % of control = 83.9
Or6z3 #3 | GFP, % of control = 57.7; viability (ATP), % of control = 79.9
Tcl1b3 #1 | GFP, % of control = 60.1; viability (ATP), % of control = 70.1
Tcl1b3 #2 | GFP, % of control = 96.4; viability (ATP), % of control = 79.9
Tcl1b3 #3 | GFP, % of control = 133 (active); viability (ATP), % of control = 104
Ifi204 #1 | GFP, % of control = 115; viability (ATP), % of control = 81.1
Ifi204 #2 | GFP, % of control = 78.5; viability (ATP), % of control = 80
Ifi204 #3 | GFP, % of control = 74.3; viability (ATP), % of control = 101
Rfc2 #1 | GFP, % of control = 52.3; viability (ATP), % of control = 41.5
Rfc2 #2 | GFP, % of control = 67.1; viability (ATP), % of control = 89.3
Rfc2 #3 | GFP, % of control = 58.5; viability (ATP), % of control = 68
Pak2 | GFP, % of control = 31.7; viability (ATP), % of control = 35.6
Rdh14 #1 | GFP, % of control = 214 (active); viability (ATP), % of control = 78.6
Rdh14 #2 | GFP, % of control = 42.6; viability (ATP), % of control = 51.3
Rdh14 #3 | GFP, % of control = 87.1; viability (ATP), % of control = 106
Parg #1 | GFP, % of control = 50.6; viability (ATP), % of control = 72.4
Parg #2 | GFP, % of control = 83.1; viability (ATP), % of control = 86.5
Parg #3 | GFP, % of control = 64.4; viability (ATP), % of control = 79.4
Agpat2 #1 | GFP, % of control = 86.5; viability (ATP), % of control = 76.6
Agpat2 #2 | GFP, % of control = 55.9; viability (ATP), % of control = 62.8
Agpat2 #3 | GFP, % of control = 67.4; viability (ATP), % of control = 60.5
Ankrd52 #1 | GFP, % of control = 65.7; viability (ATP), % of control = 66.3
Ankrd52 #2 | GFP, % of control = 37.5; viability (ATP), % of control = 32.6
Ankrd52 #3 | GFP, % of control = 44.2; viability (ATP), % of control = 61
Magea4 #1 | GFP, % of control = 106; viability (ATP), % of control = 67.5
Magea4 #2 | GFP, % of control = 72.6; viability (ATP), % of control = 81.4
Magea4 #3 | GFP, % of control = 93.1; viability (ATP), % of control = 89.4

3 entries from above, reduced to “GFP, % of control”.
Parg #2: 83.1
Parg #3: 64.4
Agpat2 #1: 86.5
